Results are given in words; binding and its absence hold for the method and conditions named. Binding seen in cells or lysates may run through a third protein. Some results given as binding are weak or reduced against the parent protein; the word gives no strength.

Amino acid sequences for entries named in this document (tags omitted).
UniProt Q12888: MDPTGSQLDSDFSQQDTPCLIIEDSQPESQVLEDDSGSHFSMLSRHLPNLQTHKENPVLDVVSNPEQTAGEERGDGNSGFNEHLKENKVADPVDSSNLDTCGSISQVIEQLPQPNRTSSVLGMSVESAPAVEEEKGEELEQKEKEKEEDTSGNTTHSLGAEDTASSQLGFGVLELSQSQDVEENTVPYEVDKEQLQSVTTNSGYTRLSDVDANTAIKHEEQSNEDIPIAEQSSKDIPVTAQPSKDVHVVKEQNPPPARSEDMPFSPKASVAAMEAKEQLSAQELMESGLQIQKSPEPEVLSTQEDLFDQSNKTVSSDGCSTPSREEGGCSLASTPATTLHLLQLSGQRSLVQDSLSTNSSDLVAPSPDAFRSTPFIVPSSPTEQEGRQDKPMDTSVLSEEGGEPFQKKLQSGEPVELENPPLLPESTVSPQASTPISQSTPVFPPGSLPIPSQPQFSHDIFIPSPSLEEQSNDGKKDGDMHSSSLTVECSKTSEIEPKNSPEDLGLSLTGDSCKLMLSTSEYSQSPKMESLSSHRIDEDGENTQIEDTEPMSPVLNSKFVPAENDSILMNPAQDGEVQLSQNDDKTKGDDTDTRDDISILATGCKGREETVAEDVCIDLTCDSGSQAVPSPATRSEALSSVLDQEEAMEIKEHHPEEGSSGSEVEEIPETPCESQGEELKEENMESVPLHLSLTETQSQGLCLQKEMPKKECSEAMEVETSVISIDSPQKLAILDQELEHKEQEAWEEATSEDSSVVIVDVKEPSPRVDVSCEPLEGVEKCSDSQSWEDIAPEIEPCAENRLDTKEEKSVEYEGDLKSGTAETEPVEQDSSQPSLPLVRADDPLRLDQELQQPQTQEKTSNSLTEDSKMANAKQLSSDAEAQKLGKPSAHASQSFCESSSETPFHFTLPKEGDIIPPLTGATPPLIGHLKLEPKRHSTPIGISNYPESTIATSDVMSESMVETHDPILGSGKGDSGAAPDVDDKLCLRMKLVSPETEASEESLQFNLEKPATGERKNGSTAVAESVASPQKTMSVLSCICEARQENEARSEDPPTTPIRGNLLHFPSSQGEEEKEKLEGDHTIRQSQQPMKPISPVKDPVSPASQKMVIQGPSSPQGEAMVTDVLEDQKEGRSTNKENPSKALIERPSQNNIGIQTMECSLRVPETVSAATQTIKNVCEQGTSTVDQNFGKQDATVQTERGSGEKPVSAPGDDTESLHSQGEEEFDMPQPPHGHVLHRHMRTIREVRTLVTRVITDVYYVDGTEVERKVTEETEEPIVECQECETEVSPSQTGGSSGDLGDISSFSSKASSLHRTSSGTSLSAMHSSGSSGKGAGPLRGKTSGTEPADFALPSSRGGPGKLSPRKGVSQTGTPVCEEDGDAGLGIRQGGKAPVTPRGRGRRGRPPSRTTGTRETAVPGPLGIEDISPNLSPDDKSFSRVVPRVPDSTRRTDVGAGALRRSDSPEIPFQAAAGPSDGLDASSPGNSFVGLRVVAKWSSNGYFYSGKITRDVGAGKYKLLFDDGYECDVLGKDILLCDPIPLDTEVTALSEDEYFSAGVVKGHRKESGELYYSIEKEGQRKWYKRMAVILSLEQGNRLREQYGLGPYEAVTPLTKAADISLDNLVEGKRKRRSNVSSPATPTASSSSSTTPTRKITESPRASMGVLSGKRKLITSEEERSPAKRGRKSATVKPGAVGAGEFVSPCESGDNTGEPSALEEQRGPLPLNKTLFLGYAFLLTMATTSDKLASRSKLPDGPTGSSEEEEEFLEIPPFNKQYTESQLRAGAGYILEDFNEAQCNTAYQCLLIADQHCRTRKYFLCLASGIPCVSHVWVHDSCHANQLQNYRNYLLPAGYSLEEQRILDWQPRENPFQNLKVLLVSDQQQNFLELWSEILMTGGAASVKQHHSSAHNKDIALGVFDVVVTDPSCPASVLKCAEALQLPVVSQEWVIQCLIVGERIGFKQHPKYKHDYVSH
UniProt O43791: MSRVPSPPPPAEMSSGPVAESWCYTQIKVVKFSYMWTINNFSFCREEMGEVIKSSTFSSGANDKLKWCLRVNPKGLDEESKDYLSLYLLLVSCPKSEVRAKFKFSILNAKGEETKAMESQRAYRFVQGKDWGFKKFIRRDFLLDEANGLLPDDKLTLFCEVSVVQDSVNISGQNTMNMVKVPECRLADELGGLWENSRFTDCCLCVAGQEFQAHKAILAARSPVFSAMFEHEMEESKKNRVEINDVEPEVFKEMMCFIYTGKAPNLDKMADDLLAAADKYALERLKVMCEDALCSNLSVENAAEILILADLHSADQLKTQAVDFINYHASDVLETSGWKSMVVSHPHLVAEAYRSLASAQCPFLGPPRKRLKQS

The experiment addresses 53BP1 in 293T cells (co-IP with ectopic TRABID) (UniProt Q12888). Put plainly: co-IP; SPOP-53BP1 interaction in cells expressing TRABID WT or the catalytically dead mutant (Supplementary Fig. 2h); legend not shown, method taken from the only interaction method in the Methods.

SPOP (from UniProt O43791 1-374): the binding result is on record as “binds”.
